These are yes or no findings as the source states them, for the method shown. In cells and extracts the contact can be indirect. Some entries that bind do so weakly or less than the wild type.
Target: T1, Phosphatase and Actin Regulator 4 (Phactr4) (mouse (endogenous in murine cells)) (UniProt Q501J7)
T1 sequence: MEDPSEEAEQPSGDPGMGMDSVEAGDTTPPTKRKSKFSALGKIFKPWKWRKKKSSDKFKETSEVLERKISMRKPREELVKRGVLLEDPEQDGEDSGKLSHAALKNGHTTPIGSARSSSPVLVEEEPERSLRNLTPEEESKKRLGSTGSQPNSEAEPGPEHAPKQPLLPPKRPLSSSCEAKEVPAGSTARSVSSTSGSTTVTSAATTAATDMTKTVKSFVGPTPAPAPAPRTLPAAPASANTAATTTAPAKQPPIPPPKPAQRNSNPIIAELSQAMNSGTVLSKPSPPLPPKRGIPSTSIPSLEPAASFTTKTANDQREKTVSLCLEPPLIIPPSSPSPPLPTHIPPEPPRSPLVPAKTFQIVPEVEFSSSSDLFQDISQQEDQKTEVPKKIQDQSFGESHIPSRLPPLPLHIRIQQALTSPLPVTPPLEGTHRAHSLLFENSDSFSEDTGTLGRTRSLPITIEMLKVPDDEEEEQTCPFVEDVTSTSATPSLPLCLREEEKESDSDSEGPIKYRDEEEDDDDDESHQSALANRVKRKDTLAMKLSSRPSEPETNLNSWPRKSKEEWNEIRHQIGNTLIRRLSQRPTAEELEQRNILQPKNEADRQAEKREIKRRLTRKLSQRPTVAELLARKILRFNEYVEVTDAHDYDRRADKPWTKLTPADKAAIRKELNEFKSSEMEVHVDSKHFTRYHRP
Assay: proximity ligation; proximity ligation assay of ezrin and Phactr4 in cells, without and with Arp2/3 inhibition (proximity not affected)

Sequences of proteins named here, by UniProt entry; tags and fusion partners are left off.
UniProt P26040: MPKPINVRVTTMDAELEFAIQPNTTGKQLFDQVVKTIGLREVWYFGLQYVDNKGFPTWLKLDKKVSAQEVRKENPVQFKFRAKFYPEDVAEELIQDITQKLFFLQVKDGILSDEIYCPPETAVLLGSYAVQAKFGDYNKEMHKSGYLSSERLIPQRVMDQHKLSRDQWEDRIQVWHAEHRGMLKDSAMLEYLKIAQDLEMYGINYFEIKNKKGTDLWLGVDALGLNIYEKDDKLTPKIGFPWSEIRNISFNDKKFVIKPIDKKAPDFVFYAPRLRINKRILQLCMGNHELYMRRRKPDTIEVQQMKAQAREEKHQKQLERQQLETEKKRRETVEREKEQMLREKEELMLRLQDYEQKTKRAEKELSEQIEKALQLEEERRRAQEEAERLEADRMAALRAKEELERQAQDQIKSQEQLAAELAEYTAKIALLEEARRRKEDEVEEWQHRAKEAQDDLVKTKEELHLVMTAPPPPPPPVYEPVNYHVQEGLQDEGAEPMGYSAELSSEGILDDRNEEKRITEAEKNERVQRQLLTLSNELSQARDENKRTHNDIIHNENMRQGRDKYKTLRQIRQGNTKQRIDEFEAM

binding: binds
Substance: ezrin (from UniProt P26040 1-586)

— article doi:10.1101/2025.05.13.653717
